We go through one sequence from paper PMC12424427.

By UniProt entry, the sequences of proteins in these tests, tags left out.
UniProt Q9UKV8, whole entry: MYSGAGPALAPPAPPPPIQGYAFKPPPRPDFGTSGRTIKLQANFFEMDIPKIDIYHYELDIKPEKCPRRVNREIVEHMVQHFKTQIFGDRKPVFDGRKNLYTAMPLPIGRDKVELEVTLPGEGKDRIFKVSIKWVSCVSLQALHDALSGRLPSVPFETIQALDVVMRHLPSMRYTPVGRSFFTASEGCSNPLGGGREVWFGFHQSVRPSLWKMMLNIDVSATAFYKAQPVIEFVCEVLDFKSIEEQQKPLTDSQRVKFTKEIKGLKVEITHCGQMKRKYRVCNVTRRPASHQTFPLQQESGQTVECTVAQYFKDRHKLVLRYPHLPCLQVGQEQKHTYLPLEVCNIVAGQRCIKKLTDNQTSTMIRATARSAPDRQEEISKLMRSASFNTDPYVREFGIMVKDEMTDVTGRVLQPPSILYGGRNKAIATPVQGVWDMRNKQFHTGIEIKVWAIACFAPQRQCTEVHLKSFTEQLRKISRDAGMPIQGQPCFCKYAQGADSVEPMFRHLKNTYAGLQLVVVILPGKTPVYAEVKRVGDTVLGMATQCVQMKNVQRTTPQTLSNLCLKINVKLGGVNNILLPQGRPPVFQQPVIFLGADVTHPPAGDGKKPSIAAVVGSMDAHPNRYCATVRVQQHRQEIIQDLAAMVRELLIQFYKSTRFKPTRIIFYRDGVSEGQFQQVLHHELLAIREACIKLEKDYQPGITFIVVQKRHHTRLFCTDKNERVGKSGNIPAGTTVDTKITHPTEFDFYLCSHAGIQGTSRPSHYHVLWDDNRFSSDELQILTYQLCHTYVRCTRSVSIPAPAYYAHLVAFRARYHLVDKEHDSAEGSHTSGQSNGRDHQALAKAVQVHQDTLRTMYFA

This data set addresses AGO2 (UniProt Q9UKV8). The data set is described as follows: competition (MST). Particulars: competitor vs 3p-hpRNA: 1x partly reduces, 10x completely disrupts; 5'-phosphate; 3' dTdT (last two nt are DNA); commercial protein; protein details: fluorescent RED-NHS label when target.

Construct, isoform or probe ends are uncertain for at least one entry.

In the case of GCAUGCGACCUCUGUUUGATT [siRNA], the binding result is reported as “binds”.
